In patent US20120245121A1, “METHODS FOR IMPROVING BONE HEALTH IN INFANTS USING LONG CHAIN POLYUNSATURATED FATTY ACIDS” (ABBOTT LABORATORIES, priority 2011, published 2012):

Assay: Body weight of rat offspring after maternal diet supplementation
Assay type: in vivo, Sprague-Dawley rats
Conditions: mean±SEM

O=C([O-])[O-].[Ca+2] [Calcium, calcium carbonate]
body weight of pups (at delivery, p<0.05 vs. Control group): 8.24 ± 0.10 g
body weight of pups (at weaning (25-day-old), p<0.05 vs Control group): 62.0 ± 0.9 g
